Data published in article PMC10787177.
Results are given in words; binding and its absence hold for the method and conditions named. In cells and extracts the contact can be indirect. These calls come from enrichment with a bait or labelling near it, and not all partners need be listed. For some assays here: Where a sequence is shown, tags or fusion partners need not be part of it. Values belong to the substance of their own block, whether it stands above or below them.

Protein sequences, listed by entry. Tags and fused reporters are not part of them.
UniProt O14980: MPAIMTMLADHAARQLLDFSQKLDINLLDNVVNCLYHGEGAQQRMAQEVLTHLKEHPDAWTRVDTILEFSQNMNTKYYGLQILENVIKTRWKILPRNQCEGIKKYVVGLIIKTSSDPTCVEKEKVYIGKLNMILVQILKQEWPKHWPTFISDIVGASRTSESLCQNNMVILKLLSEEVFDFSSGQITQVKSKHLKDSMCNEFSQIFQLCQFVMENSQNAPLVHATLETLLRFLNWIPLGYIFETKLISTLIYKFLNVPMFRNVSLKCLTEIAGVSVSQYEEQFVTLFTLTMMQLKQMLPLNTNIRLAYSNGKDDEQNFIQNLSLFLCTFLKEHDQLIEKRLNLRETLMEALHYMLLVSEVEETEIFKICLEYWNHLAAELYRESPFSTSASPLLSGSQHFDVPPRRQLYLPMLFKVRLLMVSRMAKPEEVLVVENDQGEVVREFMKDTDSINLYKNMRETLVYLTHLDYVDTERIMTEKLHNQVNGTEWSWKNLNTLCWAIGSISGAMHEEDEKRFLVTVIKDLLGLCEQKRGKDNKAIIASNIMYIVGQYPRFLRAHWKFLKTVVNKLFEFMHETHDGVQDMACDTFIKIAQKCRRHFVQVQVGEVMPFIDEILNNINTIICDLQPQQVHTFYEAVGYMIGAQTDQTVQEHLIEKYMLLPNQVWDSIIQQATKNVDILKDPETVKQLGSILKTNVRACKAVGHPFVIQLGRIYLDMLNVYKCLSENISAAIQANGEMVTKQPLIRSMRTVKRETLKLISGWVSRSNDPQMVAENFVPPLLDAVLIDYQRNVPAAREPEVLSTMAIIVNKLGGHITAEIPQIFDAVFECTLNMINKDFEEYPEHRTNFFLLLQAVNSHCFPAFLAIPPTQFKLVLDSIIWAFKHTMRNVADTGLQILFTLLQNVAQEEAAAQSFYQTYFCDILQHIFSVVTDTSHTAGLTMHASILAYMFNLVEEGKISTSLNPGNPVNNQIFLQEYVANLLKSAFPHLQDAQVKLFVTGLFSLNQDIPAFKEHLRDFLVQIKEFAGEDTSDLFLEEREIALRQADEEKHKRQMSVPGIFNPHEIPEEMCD

Key:
[1] = biological target: T1, ITFG2 (BioPlex 2.0 bait) (human) (UniProt Q969R8); experiment: affinity purification with mass spectrometry; re-analysis of the raw MS data of BioPlex 2.0 (tagged bait refProts in HEK293T) with the OpenProt 1.6 library; 0.001% protein FDR, PepQuery validation, CompPASS and Naive Bayes classifier for high-confidence interacting proteins
T1 sequence: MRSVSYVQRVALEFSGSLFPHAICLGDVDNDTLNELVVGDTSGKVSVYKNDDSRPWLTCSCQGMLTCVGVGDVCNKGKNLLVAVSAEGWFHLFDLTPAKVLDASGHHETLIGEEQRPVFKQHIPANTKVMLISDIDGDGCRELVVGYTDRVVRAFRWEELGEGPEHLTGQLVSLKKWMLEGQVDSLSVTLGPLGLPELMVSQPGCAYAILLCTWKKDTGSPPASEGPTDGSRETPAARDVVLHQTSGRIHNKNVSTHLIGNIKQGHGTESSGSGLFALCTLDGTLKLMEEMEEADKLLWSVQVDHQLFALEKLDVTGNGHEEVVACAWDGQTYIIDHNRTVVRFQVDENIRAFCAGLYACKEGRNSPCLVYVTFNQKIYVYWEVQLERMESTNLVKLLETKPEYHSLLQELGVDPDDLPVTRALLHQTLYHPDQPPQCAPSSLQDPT

[2] = biological target: T2, USP48 (BioPlex 2.0 bait) (human) (UniProt Q86UV5); experiment: as above
T2 sequence: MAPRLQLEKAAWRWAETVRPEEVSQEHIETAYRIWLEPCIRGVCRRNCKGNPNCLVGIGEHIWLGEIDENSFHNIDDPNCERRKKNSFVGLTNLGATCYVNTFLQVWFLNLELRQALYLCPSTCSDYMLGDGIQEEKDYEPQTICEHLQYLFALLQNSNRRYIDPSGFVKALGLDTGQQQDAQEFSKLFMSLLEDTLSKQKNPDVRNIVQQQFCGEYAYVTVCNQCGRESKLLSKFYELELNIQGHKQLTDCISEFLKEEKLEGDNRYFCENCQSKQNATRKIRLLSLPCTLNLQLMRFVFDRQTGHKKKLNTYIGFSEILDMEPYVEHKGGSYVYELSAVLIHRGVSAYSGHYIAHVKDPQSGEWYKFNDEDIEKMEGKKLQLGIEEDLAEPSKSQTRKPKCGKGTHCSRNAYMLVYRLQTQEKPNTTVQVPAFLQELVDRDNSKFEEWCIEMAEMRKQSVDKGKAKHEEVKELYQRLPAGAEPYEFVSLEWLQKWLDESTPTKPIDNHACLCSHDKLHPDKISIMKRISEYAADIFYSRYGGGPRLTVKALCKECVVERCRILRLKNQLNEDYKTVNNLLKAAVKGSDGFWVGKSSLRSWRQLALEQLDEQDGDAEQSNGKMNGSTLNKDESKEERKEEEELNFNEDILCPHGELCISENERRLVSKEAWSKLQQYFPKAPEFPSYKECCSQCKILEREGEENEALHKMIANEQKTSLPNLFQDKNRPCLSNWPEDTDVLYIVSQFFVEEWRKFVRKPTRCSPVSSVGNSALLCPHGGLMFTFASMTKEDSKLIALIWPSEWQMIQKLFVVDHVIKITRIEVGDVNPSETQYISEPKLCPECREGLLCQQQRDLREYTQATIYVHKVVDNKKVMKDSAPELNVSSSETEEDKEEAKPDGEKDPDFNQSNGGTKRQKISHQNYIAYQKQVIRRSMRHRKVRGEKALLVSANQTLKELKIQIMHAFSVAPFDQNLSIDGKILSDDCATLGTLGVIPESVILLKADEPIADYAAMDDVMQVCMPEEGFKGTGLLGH

PHB1-GFP (human) = biological target: T3, PHB1-GFP (human) (UniProt P35232); experiment: affinity purification with mass spectrometry; PHB-GFP as bait on agarose ChromoTek GFP beads; HEK293 lysate (150 mM NaCl, 50 mM Tris-HCl, 1% Triton), 4 h at 4 °C; three independent AP-MS; scored with SAINT
T3 sequence: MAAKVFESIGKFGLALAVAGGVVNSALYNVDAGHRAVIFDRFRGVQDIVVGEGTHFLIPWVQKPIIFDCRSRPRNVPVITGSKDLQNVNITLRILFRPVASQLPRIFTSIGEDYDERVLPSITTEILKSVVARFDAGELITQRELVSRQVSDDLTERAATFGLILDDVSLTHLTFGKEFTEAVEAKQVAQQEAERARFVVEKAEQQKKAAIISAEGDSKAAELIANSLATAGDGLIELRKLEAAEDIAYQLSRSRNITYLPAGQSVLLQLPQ

[3] = biological target: T4, PHB1 (BioPlex 2.0 bait) (human) (UniProt P35232); experiment: affinity purification with mass spectrometry; re-analysis of the raw MS data of BioPlex 2.0 (tagged bait refProts in HEK293T) with the OpenProt 1.6 library; 0.001% protein FDR, PepQuery validation, CompPASS and Naive Bayes classifier for high-confidence interacting proteins
T4 sequence: T3 sequence

binding [1]: binds
Substance: IP_602155 (human (endogenous in HEK293T))

binding [2]: binds
Substance: IP_710744 (human (endogenous in HEK293T))

binding (PHB1-GFP (human)): binds
binding [3]: binds
Substance: IP_762813 (human (endogenous in HEK293T and HEK293))

binding (PHB1-GFP (human)): binds
Substance: XPO1 (from UniProt O14980 1-1071)
